# According to publication PMC9582434, “Ryanodine receptor-active non-dioxin-like polychlorinated biphenyls cause neurobehavioral deficits in larval zebrafish” (Frontiers in Toxicology, 2022):
# Tested on: larval zebrafish
# Assay: Neurotoxicity ranking of congeners (RYR binding, behavior, body burden)
# Conditions: 1 = most potent
row,SMILES,Rank (overall neurotoxic potency)
1,Clc1ccc(-c2ccc(Cl)cc2Cl)cc1 [PCB 28],6
2,Clc1ccc(-c2ccc(Cl)c(Cl)c2)c(Cl)c1 [PCB 66],5
3,Clc1cccc(-c2c(Cl)ccc(Cl)c2Cl)c1Cl [PCB 84],3
4,"Clc1ccc(Cl)c(-c2c(Cl)ccc(Cl)c2Cl)c1 [PCB 95, 2,2',3,5',6-pentachlorobiphenyl]",1
5,Clc1cc(Cl)c(-c2ccc(Cl)c(Cl)c2Cl)cc1Cl [PCB 138],2
6,"Clc1cc(Cl)c(-c2cc(Cl)c(Cl)cc2Cl)cc1Cl [PCB 153, 2,2',4,4',5,5'-Hexachlorobiphenyl]",4
